This passage reports binding results from paper PMC9023578.

Protein sequences, listed by entry. Tags and fused reporters are not part of them. Residues count along the entry.
UniProt Q9EP73, residues 19-290: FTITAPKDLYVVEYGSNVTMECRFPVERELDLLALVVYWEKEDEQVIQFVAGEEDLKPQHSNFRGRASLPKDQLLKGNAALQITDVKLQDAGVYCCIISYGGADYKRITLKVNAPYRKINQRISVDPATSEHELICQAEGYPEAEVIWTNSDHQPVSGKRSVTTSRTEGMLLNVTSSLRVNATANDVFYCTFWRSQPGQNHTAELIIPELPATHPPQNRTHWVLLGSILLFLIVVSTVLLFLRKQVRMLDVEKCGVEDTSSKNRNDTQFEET
UniProt P09793, residues 36-161: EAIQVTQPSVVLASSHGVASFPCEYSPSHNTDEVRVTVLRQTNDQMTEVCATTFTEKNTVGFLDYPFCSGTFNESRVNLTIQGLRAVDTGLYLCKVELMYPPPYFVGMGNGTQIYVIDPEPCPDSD

These are yes or no findings as the source states them, for the method shown.

The target in this assay is PD-L1 on mouse lymphatic endothelial cells (LEC PD-L1) (mouse (endogenous in primary C57BL/6 dermal LECs)) (UniProt Q9EP73). Description: flow cytometry on cells; plated mouse LECs incubated with the Ig fusion or control human IgG1 for 1 hour at 37 °C, washed, stained with PE anti-human IgG1 for bound Igs; only the binder purified. A general note: A flow cytometer gives signals particle by particle.

Take “Recombinant mouse CTLA4 Ig (from UniProt P09793 36-161) (Fc fusion)”: the binding entry is “no binding”.
